The target in experiment [1] is Myc-Twa1 (human) (UniProt Q9NWU2). The experiment can be described thus: co-IP; sequential immunoprecipitation: anti-Flag antibody, elution with Flag peptide, then anti-Myc antibody or control IgG; lysates of HEK-293 cells transfected with HA-GSK3β, Myc-Twa1 and Flag-Axin.
For experiment [2], the target named is Flag-Twa1 (human) (UniProt Q9NWU2). The experiment can be described thus: co-IP; lysates of HEK-293 cells (transfected or not; Wnt3a-CM or Ctr-CM; Twa1 knock-down or knockout in some panels) incubated with the indicated antibodies at 4 °C overnight, Protein A/G Sepharose beads, western blotting. (In general: Immunoblotting shows a protein as a band on a membrane.)

Chains of the proteins cited; added tags and fusions are not shown. Lines headed by an entry give the natural chain unless they say otherwise; changes in a name come on top. A line that says so, or that is headed by a name, gives the form on record, which may keep a tag or linker.
UniProt Q9NWU2: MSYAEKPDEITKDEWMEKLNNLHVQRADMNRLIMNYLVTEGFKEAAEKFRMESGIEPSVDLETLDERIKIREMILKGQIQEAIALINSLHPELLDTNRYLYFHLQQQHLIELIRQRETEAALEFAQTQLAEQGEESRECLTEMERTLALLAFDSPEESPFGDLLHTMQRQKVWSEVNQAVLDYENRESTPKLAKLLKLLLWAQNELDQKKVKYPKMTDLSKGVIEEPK
Flag-Twa1-ΔCRA (Q9NWU2, form named): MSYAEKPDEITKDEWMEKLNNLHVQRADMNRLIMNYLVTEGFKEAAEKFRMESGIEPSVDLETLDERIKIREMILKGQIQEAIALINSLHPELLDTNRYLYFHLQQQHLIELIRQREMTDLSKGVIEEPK
UniProt P49841: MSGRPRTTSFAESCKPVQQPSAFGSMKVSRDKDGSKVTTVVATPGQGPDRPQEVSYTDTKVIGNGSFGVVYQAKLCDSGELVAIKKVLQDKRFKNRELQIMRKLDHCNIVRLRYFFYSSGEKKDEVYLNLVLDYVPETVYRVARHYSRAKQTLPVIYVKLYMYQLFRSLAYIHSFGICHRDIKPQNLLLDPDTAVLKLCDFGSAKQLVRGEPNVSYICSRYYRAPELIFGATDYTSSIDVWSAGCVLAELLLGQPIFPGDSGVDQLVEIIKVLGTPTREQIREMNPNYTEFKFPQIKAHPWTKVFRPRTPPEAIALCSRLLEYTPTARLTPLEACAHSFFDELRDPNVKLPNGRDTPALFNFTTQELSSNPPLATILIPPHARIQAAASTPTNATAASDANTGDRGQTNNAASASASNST
UniProt Q9NQB0: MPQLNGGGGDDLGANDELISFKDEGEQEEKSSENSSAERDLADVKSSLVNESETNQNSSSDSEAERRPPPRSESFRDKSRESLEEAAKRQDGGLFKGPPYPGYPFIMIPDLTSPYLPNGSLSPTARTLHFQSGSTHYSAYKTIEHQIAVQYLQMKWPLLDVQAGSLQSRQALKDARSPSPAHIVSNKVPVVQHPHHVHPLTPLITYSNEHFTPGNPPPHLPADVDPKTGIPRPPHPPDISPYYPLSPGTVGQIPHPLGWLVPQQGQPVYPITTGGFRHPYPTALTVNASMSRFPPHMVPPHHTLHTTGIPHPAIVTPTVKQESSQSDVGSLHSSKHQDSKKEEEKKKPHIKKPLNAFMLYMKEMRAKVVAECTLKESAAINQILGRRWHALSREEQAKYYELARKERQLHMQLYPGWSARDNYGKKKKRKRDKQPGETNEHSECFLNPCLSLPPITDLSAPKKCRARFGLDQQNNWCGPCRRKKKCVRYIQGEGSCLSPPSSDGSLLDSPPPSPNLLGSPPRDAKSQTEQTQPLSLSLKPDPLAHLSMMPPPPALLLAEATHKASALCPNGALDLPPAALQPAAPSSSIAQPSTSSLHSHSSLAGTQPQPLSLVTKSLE
UniProt P35222: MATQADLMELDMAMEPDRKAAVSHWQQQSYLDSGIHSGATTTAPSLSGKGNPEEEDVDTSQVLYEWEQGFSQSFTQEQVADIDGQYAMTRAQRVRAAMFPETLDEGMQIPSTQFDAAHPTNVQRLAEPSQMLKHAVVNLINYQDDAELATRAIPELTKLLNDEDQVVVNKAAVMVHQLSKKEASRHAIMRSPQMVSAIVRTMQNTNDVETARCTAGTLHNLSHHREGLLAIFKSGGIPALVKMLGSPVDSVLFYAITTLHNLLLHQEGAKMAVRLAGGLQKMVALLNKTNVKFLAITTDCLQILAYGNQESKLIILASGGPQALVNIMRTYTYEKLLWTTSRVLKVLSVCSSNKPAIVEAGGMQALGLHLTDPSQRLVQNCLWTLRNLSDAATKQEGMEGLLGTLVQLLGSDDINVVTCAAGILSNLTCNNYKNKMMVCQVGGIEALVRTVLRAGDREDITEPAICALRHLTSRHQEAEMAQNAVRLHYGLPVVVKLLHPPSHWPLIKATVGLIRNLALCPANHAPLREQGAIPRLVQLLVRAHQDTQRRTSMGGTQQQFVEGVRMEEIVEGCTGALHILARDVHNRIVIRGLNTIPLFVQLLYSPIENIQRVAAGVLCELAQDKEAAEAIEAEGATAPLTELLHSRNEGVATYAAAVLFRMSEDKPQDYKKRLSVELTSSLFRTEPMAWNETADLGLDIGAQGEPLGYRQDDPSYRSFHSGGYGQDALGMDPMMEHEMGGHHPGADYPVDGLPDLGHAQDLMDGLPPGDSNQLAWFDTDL

For experiment [3], the target named is endogenous Twa1 (human (endogenous in HEK-293)) (UniProt Q9NWU2). Put plainly: co-IP; nuclear fractions of HEK-293 cells treated with Wnt3a-CM; in Figure 5F anti-Myc antibody, increasing amounts of HA-TCF4 plasmid.
The target is the same in experiment [4]. Put plainly: co-IP; lysates of HEK-293 cells (transfected or not; Wnt3a-CM or Ctr-CM; Twa1 knock-down or knockout in some panels) incubated with the indicated antibodies at 4 °C overnight, Protein A/G Sepharose beads, western blotting.
The target in experiment [5] is GST-Twa1-ΔCRA (human) (UniProt Q9NWU2). Put plainly: pull-down; GST pull-down: purified proteins incubated in 20 mM Tris pH 8.0, 150 mM NaCl, 0.5% NP-40, 5 mM EGTA, 1.5 mM EDTA at 4 °C for 4 h, then glutathione-agarose beads for 2 h; western blotting; both purified.
The target of experiment [6] is Flag-Twa1-ΔCRA (human) (UniProt Q9NWU2). The experiment can be described thus: co-IP; lysates of HEK-293 cells (transfected or not; Wnt3a-CM or Ctr-CM; Twa1 knock-down or knockout in some panels) incubated with the indicated antibodies at 4 °C overnight, Protein A/G Sepharose beads, western blotting.

No constants are given. Whether binding was seen depends on the method and setting. For part of these data: Binding seen in cells or lysates may run through a third protein. Some entries that bind do so weakly or less than the wild type.

In the case of “HA-GSK3β (from UniProt P49841 1-420) (enzyme)”, the binding entry in experiment [1] and in experiment [2] was “binds” throughout.

Regarding “endogenous TCF4 (from UniProt Q9NQB0 1-619)”, the binding entry in experiment [2] is listed as “no binding”.

For the substance “endogenous β-catenin (from UniProt P35222 1-781)”, the binding entry in experiment [3], in experiment [4] and in experiment [2] was “binds” each time. For the substance “His-β-catenin (from UniProt P35222 1-781)”, in experiment [5], the binding entry was “no binding”. Consider “β-catenin (co-IP of Figure 3B) (from UniProt P35222 1-781)”, for which the binding result in experiment [6] is reported as “no binding”; in experiment [2], “binds”.
